According to paper PMC4062937:
Read-outs that look alike come from different tables or passages of the source. No constants are given. Whether binding was seen depends on the method and setting. In cells and extracts the contact can be indirect. Some entries that bind do so weakly or less than the wild type. Blank lines part the entries; values can stand above or below the molecule they belong to.

Sequences of proteins named here, by UniProt entry; tags and fusion partners are left off. Residues count along the entry.
UniProt Q13586, residues 23-685: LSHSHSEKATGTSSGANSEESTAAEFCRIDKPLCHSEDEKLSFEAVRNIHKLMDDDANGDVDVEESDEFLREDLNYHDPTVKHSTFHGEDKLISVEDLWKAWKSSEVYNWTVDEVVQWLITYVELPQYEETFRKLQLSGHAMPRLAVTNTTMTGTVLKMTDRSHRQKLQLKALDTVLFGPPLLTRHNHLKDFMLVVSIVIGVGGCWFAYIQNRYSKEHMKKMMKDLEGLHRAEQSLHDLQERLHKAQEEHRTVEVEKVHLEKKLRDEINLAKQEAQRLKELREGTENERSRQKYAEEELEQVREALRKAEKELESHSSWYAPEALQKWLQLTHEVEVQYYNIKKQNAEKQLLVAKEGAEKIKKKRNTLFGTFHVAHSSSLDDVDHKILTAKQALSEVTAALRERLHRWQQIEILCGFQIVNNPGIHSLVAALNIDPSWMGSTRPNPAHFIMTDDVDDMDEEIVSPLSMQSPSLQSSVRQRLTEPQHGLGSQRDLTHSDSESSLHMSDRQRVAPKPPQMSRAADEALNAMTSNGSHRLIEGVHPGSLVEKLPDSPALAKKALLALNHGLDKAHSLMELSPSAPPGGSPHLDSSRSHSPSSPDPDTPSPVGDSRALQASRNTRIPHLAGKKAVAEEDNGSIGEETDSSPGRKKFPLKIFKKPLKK
UniProt P07996, residues 19-1170: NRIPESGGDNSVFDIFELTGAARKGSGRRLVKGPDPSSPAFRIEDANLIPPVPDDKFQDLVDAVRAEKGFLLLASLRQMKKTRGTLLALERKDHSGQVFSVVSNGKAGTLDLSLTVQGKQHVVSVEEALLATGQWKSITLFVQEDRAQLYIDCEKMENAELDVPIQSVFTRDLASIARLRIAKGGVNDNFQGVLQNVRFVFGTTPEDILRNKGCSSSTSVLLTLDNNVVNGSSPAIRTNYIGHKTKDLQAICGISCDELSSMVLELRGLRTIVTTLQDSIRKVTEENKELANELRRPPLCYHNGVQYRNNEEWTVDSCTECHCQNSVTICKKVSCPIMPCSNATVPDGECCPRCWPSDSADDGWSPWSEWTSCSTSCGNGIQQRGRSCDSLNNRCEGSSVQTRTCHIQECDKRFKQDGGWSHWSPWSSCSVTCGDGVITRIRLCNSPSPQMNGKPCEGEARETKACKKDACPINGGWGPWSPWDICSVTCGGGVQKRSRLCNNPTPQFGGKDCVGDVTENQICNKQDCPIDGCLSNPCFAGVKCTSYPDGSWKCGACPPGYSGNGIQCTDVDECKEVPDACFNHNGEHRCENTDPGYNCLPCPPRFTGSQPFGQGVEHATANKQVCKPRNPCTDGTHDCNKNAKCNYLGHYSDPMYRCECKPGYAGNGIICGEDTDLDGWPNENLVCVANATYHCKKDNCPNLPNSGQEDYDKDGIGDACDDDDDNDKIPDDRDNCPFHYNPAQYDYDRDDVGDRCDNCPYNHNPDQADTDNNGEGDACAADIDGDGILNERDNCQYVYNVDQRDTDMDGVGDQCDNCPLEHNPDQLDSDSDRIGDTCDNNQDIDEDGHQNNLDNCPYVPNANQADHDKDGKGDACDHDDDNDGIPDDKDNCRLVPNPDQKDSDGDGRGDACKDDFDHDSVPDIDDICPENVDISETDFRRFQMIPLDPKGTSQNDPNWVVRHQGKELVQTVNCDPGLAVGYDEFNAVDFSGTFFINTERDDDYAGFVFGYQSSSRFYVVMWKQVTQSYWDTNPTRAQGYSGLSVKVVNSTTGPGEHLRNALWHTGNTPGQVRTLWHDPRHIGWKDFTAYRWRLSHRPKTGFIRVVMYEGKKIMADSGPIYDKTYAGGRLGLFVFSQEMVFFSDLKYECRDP
UniProt P35579: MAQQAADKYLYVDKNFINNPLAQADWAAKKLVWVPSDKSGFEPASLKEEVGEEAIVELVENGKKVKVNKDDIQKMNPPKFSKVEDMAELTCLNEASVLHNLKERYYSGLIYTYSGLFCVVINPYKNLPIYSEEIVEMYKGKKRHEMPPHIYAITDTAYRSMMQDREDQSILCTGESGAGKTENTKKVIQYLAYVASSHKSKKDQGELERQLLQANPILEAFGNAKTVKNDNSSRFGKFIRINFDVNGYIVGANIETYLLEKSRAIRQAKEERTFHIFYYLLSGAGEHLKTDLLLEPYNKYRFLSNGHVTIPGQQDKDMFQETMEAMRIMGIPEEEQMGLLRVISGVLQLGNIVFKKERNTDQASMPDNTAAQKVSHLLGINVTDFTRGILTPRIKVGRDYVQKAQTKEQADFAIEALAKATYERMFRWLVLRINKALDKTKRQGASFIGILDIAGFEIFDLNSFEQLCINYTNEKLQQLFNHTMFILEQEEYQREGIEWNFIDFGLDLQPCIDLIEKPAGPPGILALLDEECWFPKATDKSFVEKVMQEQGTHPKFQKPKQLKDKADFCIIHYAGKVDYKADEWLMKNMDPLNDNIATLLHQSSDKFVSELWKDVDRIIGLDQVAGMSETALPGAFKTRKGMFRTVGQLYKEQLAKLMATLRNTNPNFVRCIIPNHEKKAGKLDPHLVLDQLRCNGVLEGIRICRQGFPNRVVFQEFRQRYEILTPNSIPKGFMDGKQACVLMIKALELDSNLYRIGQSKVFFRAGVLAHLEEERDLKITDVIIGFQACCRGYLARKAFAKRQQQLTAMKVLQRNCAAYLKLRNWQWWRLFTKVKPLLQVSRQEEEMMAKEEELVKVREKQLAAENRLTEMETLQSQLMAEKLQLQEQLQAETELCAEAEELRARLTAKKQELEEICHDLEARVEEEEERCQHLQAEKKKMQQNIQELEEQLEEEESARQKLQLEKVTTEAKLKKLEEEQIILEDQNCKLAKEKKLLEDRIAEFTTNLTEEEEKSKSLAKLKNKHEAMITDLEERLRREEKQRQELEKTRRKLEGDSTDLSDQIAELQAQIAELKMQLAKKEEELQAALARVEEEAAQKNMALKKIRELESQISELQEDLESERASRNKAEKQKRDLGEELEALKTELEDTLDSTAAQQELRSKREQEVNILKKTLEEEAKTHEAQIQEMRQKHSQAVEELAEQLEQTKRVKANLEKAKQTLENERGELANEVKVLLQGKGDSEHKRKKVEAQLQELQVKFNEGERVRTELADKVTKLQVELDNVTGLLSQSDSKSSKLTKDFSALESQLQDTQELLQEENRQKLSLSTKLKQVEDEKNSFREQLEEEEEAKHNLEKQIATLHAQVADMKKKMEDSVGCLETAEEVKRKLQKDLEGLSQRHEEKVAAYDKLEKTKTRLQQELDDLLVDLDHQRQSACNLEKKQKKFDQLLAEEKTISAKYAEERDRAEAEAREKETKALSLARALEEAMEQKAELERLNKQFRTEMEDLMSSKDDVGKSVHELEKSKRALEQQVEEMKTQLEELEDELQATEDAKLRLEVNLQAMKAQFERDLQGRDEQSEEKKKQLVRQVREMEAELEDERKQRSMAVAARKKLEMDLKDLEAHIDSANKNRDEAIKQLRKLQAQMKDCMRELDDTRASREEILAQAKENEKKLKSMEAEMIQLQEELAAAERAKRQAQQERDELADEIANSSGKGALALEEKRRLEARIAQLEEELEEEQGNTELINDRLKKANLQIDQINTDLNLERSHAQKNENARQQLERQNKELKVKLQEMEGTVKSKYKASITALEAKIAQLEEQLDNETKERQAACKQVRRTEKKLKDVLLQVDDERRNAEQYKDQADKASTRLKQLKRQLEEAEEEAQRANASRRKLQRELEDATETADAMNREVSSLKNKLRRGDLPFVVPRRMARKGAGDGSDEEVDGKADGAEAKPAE

Key:
[1] = target: Stromal interaction molecule 1 (human (endogenous in platelets)) (UniProt Q13586); assay: co-IP; STIM1 immunoprecipitated with a C-terminal polyclonal STIM1 antibody from lysates of human platelets (1 x 10^9 cells/ml; resting or treated for 1 min with thrombin, CRP or TG); Western blotting of the immunoprecipitates
[2] = target: Stromal interaction molecule 1 (human (endogenous in platelets)) (UniProt Q13586); assay: as above; remark: listed apart in the source

binding [1]: binds
Molecule: Thrombospondin-1 (from UniProt P07996 19-1170)

binding [1]: binds
Molecule: Myosin-9, non-muscle (from UniProt P35579 1-1960)

binding [2]: no binding
B1: TRPC3 (protein, UniProt Q13507 1-921)
chain: MSTKVRKCKEQARVTFPAPEEEEDEGEDEGAEPQRRRRGWRGVNGGLEPRSAPSQREPHGYCPPPFSHGPDLSMEGSPSLRRMTVMREKGRRQAVRGPAFMFNDRGTSLTAEEERFLDAAEYGNIPVVRKMLEESKTLNVNCVDYMGQNALQLAVGNEHLEVTELLLKKENLARIGDALLLAISKGYVRIVEAILNHPGFAASKRLTLSPCEQELQDDDFYAYDEDGTRFSPDITPIILAAHCQKYEVVHMLLMKGARIERPHDYFCKCGDCMEKQRHDSFSHSRSRINAYKGLASPAYLSLSSEDPVLTALELSNELAKLANIEKEFKNDYRKLSMQCKDFVVGVLDLCRDSEEVEAILNGDLESAEPLEVHRHKASLSRVKLAIKYEVKKFVAHPNCQQQLLTIWYENLSGLREQTIAIKCLVVLVVALGLPFLAIGYWIAPCSRLGKILRSPFMKFVAHAASFIIFLGLLVFNASDRFEGITTLPNITVTDYPKQIFRVKTTQFTWTEMLIMVWVLGMMWSECKELWLEGPREYILQLWNVLDFGMLSIFIAAFTARFLAFLQATKAQQYVDSYVQESDLSEVTLPPEIQYFTYARDKWLPSDPQIISEGLYAIAVVLSFSRIAYILPANESFGPLQISLGRTVKDIFKFMVLFIMVFFAFMIGMFILYSYYLGAKVNAAFTTVEESFKTLFWSIFGLSEVTSVVLKYDHKFIENIGYVLYGIYNVTMVVVLLNMLIAMINSSYQEIEDDSDVEWKFARSKLWLSYFDDGKTLPPPFSLVPSPKSFVYFIMRIVNFPKCRRRRLQKDIEMGMGNSKSRLNLFTQSNSRVFESHSFNSILNQPTRYQQIMKRLIKRYVLKAQVDKENDEVNEGELKEIKQDISSLRYELLEDKSQATEELAILIHKLSEKLNPSMLRCE

binding [2]: no binding
B2: transient receptor potential canonical 6 (protein, UniProt Q9Y210 1-931)
chain: MSQSPAFGPRRGSSPRGAAGAAARRNESQDYLLMDSELGEDGCPQAPLPCYGYYPCFRGSDNRLAHRRQTVLREKGRRLANRGPAYMFSDRSTSLSIEEERFLDAAEYGNIPVVRKMLEECHSLNVNCVDYMGQNALQLAVANEHLEITELLLKKENLSRVGDALLLAISKGYVRIVEAILSHPAFAEGKRLATSPSQSELQQDDFYAYDEDGTRFSHDVTPIILAAHCQEYEIVHTLLRKGARIERPHDYFCKCNDCNQKQKHDSFSHSRSRINAYKGLASPAYLSLSSEDPVMTALELSNELAVLANIEKEFKNDYKKLSMQCKDFVVGLLDLCRNTEEVEAILNGDVETLQSGDHGRPNLSRLKLAIKYEVKKFVAHPNCQQQLLSIWYENLSGLRQQTMAVKFLVVLAVAIGLPFLALIYWFAPCSKMGKIMRGPFMKFVAHAASFTIFLGLLVMNAADRFEGTKLLPNETSTDNAKQLFRMKTSCFSWMEMLIISWVIGMIWAECKEIWTQGPKEYLFELWNMLDFGMLAIFAASFIARFMAFWHASKAQSIIDANDTLKDLTKVTLGDNVKYYNLARIKWDPSDPQIISEGLYAIAVVLSFSRIAYILPANESFGPLQISLGRTVKDIFKFMVIFIMVFVAFMIGMFNLYSYYIGAKQNEAFTTVEESFKTLFWAIFGLSEVKSVVINYNHKFIENIGYVLYGVYNVTMVIVLLNMLIAMINSSFQEIEDDADVEWKFARAKLWFSYFEEGRTLPVPFNLVPSPKSLFYLLLKLKKWISELFQGHKKGFQEDAEMNKINEEKKLGILGSHEDLSKLSLDKKQVGHNKQPSIRSSEDFHLNSFNNPPRQYQKIMKRLIKRYVLQAQIDKESDEVNEGELKEIKQDISSLRYELLEEKSQNTEDLAELIRELGEKLSMEPNQEETNR
